Paper PMC6949511
Results are given in words; binding and its absence hold for the method and conditions named. In cells and extracts the contact can be indirect. Some results given as binding are weak or reduced against the parent protein; the word gives no strength. For some of these results: Sequences can lack the tags named with a protein.

Amino acid sequences for entries named in this document (tags omitted).
UniProt Q9WTM5: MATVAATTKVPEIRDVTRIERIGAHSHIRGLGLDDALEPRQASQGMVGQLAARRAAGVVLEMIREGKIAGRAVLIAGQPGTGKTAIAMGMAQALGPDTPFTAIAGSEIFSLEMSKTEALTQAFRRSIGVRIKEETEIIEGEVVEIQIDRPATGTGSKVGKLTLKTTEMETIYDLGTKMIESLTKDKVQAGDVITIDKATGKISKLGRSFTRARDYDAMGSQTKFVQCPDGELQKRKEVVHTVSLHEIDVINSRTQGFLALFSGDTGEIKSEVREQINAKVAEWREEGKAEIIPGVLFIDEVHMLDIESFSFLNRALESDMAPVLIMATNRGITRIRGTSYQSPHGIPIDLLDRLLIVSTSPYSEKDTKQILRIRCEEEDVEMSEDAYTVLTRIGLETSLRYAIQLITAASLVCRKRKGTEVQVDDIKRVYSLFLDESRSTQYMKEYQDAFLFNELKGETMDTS
UniProt P48432: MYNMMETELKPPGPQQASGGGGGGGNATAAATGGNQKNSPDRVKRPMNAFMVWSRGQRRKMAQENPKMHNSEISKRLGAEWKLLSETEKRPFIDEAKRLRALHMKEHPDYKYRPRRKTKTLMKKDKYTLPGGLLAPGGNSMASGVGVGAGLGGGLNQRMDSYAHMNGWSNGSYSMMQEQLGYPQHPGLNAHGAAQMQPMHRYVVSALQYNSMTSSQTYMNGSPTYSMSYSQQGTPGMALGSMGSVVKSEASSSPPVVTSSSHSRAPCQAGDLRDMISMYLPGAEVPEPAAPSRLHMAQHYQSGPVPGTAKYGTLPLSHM
UniProt Q8CHK4: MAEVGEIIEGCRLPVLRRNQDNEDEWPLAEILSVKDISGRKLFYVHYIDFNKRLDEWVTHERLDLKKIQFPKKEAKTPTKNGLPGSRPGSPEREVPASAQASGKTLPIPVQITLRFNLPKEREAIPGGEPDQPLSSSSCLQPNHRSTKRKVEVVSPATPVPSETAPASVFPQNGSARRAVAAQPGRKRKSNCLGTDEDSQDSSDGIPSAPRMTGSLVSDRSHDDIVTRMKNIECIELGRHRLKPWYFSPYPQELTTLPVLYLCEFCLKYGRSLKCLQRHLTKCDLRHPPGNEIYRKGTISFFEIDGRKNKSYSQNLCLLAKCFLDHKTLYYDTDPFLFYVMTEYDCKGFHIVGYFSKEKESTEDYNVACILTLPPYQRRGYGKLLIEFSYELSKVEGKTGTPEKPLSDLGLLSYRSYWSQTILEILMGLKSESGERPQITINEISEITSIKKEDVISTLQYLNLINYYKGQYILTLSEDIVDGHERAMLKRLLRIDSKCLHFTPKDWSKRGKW
UniProt P11440: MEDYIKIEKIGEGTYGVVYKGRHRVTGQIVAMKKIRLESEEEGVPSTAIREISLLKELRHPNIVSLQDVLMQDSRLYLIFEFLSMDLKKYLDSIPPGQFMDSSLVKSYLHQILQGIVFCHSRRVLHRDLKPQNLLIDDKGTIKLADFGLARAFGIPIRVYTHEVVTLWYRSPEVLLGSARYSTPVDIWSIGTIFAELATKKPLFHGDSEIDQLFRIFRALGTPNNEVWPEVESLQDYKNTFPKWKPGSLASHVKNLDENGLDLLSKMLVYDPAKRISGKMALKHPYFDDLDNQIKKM
UniProt Q9JI44: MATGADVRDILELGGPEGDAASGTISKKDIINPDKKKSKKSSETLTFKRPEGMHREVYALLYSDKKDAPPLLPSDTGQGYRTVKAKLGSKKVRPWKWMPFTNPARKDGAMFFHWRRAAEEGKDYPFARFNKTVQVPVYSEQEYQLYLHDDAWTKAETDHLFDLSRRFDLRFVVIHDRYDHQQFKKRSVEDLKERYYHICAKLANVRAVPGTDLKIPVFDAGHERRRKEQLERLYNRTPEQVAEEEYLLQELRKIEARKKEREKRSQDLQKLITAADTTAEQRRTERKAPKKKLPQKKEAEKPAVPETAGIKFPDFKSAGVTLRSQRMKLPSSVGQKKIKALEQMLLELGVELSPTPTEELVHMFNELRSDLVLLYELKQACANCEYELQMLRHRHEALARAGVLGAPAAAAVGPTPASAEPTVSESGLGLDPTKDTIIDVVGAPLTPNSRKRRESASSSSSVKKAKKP

T1: FLAG‐tagged Tfcp2l1 (transcription factor CP2‐like protein 1), murine (mouse) (UniProt Q3UNW5)
T1 sequence: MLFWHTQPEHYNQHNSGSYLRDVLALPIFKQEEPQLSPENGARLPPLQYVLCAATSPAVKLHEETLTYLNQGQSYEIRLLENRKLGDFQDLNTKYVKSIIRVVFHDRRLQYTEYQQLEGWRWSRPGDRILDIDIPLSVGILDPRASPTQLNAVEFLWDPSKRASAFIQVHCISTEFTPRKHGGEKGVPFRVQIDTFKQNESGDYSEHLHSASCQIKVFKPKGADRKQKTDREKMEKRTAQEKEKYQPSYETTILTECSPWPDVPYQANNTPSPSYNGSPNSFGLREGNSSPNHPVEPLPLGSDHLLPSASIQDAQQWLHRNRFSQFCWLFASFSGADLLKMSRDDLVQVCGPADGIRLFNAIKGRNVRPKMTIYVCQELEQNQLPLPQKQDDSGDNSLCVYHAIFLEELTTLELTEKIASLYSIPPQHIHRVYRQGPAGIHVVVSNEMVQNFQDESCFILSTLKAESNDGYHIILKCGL

T2: Tfcp2l1 (transcription factor CP2‐like protein 1), endogenous in mESCs (mouse (endogenous in mESCs)) (UniProt Q3UNW5)
T2 sequence: T1 sequence

B1: homeobox protein NANOG (Nanog) (protein, UniProt Q80Z64 1-305)
chain: MSVGLPGPHSLPSSEEASNSGNASSMPAVFHPENYSCLQGSATEMLCTEAASPRPSSEDLPLQGSPDSSTSPKQKLSSPEADKGPEEEENKVLARKQKMRTVFSQAQLCALKDRFQKQKYLSLQQMQELSSILNLSYKQVKTWFQNQRMKCKRWQKNQWLKTSNGLIQKGSAPVEYPSIHCSYPQGYLVNASGSLSMWGSQTWTNPTWSSQTWTNPTWNNQTWTNPTWSSQAWTAQSWNGQPWNAAPLHNFGEDFLQPYVQLQQNFSASDLEVNLEATRESHAHFSTPQALELFLNYSVTPPGEI

Target: T1, FLAG‐tagged Tfcp2l1 (transcription factor CP2‐like protein 1), murine (mouse)
Experiment: co-IP; anti‐FLAG immunoprecipitation from extracts of mESCs stably expressing Flag‐Tfcp2l1 (control: Flag only); co-precipitated proteins detected with specific antibodies; IP lysis buffer 50 mM Tris–Cl pH 7.4, 0.5% NP‐40, 150 mM NaCl

Question: Which binding does the source give for “RuvB‐like 2 (Ruvbl2) (from UniProt Q9WTM5 1-463)” here?
Answer: binds

Question: “SRY‐box2 (SOX‐2) (from UniProt P48432 1-319)” was tested. Which binding did it give?
Answer: binds

Question: “histone acetyltransferase KAT5 (Tip60) (from UniProt Q8CHK4 1-513) (enzyme)” was tested. Which binding did it give?
Answer: binds

Question: Which binding does the source give for “cyclin‐dependent kinase 1 (CDK1), in mESCs (from UniProt P11440 1-297) (enzyme)” here?
Answer: binds

Question: Which binding does the source give for “DNA methyltransferase 1‐associated protein 1 (DNMAP‐1) (from UniProt Q9JI44 1-468)” here?
Answer: binds

Question: B1 was tested. Which binding did it give?
Answer: binds

Target: T2, Tfcp2l1 (transcription factor CP2‐like protein 1), endogenous in mESCs (mouse (endogenous in mESCs))
Experiment: co-IP; immunoprecipitation of endogenous proteins from mESC extracts; IP lysis buffer 50 mM Tris–Cl pH 7.4, 0.5% NP‐40, 150 mM NaCl

Question: With “cyclin‐dependent kinase 1 (CDK1), in mESCs (from UniProt P11440 1-297) (enzyme)” as the molecule, how does the binding read?
Answer: binds
